In US20250084044A1, “PROTOPORPHYRINOGEN OXIDASE INHIBITORS” (Enko Chem, Inc., priority 2022, published 2025):
Like-named read-outs stand apart in the source and are kept apart here. Some entries share one result that the patent states for a list of compounds.

Target: T1, Amaranthus tuberculantum Protoporphyrinogen Oxidase (AmPPO) (Amaranthus tuberculatus, UniProt Q0NZW9)
T1 construct: fused on or other part: C-terminal His tag (pET28b vector)
T1 sequence (Q0NZW9 1-534): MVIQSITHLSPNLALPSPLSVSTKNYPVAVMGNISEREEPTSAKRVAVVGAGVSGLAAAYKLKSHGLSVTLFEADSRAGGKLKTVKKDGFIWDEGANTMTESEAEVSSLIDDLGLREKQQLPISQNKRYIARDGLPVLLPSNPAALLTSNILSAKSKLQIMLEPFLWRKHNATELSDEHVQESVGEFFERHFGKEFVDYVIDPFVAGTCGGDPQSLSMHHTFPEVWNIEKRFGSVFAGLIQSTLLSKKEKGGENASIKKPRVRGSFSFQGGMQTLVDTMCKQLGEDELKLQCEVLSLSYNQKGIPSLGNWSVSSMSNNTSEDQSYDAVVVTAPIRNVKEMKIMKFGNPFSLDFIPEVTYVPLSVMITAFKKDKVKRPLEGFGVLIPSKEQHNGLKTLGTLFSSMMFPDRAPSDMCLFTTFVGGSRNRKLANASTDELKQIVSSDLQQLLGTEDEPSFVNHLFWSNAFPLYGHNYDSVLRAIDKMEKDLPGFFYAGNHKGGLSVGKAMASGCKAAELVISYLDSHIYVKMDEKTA
Test: PPO in vitro assay (AmPPO)
Type: biochemical

| Structure (SMILES) | IC50 (Example 17b) | IC50 |
| --- | --- | --- |
| COC(=O)CN1C(=O)C(F)(F)Oc2cc(F)c(-c3c(F)c(F)c(F)c(F)c3F)c(F)c21 [Compound 154, methyl 2-(2,2,5,7-tetrafluoro-3-oxo-6-(perfluorophenyl)-2,3-dihydro-4H-benzo[b][1,4]oxazin-4-yl)acetate] | < 100 nM | – |
| COC(=O)C[C@H]1C[C@@H](CN2C(=O)C(F)(F)Oc3cc(F)c(-c4c(F)c(F)c(F)c(F)c4F)cc32)C1 [Compound 137, methyl 2-((1s,3s)-3-((2,2,7-trifluoro-3-oxo-6-(perfluorophenyl)-2,3-dihydro-4H-benzo[b][1,4]oxazin-4-yl)methyl)cyclobutyl)acetate] | < 100 nM | < 100 nM |
| O=C(O)CN1C(=O)C(F)(F)Oc2cc(F)c(-c3cc(F)c(F)c(F)c3F)cc21 [Compound 159, 2-(2,2,7-trifluoro-3-oxo-6-(2,3,4,5-tetrafluorophenyl)-2,3-dihydro-4H-benzo[b][1,4]oxazin-4-yl)acetic acid] | < 100 nM | – |
| O=C(O)CN1C(=O)C(F)(F)Oc2cc(Cl)c(-c3c(F)c(F)c(F)c(F)c3F)cc21 [Compound 161, 2-(7-chloro-2,2-difluoro-3-oxo-6-(perfluorophenyl)-2,3-dihydro-4H-benzo[b][1,4]oxazin-4-yl)acetic acid] | < 1000 nM | – |
| COC(=O)CCN(C)C(=O)CN1C(=O)C(F)(F)Oc2cc(F)c(-c3cc(F)c(F)c(F)c3F)cc21 [Compound 166, methyl 3-(N-methyl-2-(2,2,7-trifluoro-3-oxo-6-(2,3,4,5-tetrafluorophenyl)-2,3-dihydro-4H-benzo[b][1,4]oxazin-4-yl)acetamido)propanoate] | < 100 nM | – |
| COC(=O)CCN(C)C(=O)[C@@H](C)N1C(=O)C(F)(F)Oc2cc(F)c(-c3c(F)c(F)c(F)c(F)c3F)cc21 [Compound 133, methyl (R)-3-(N-methyl-2-(2,2,7-trifluoro-3-oxo-6-(perfluorophenyl)-2,3-dihydro-4H-benzo[b][1,4]oxazin-4-yl)propanamido)propanoate] | < 100 nM | < 100 nM |
| O=C1N(C2(C(=O)O)CC2)c2cc(-c3c(F)c(F)c(F)c(F)c3F)c(F)cc2OC1(F)F [Compound 21, 1-(2,2,7-trifluo-3-oxo-6-(perfluorophenyl)-2,3-dihydro-4H-benzo[b][1,4]oxazin-4-yl)cyclopropane-1-carboxylic acid] | < 100 nM | < 100 nM |
| COC(=O)CN1C(=O)C(F)(F)Oc2cc(C)c(-c3c(F)c(F)c(F)c(F)c3F)cc21 [Compound 179, methyl 2-(2,2-difluoro-7-methyl-3-oxo-6-(perfluorophenyl)-2,3-dihydro-4H-benzo[b][1,4]oxazin-4-yl)acetate] | < 100 nM | – |
| COC(=O)C1CCN(C(=O)CN2C(=O)C(F)(F)Oc3cc(F)c(-c4c(F)c(F)c(F)c(F)c4F)cc32)CC1 [Compound 88, methyl 1-(2-(2,2,7-trifluoro-3-oxo-6-(perfluorophenyl)-2,3-dihydro-4H-benzo[b][1,4]oxazin-4-yl)acetyl)piperidine-4-carboxylate] | < 100 nM | < 100 nM |
| CNC(=O)CN1C(=O)C(F)(F)Oc2cc(F)c(-c3c(F)c(F)c(F)c(F)c3F)cc21 [Compound 82, N-methyl-2-(2,2,7-trifluoro-3-oxo-6-(perfluorophenyl)-2,3-dihydro-4H-benzo[b][1,4]oxazin-4-yl)acetamide] | < 100 nM | < 100 nM |
| O=C(O)[C@@H]1CNCCN1C(=O)CN1C(=O)C(F)(F)Oc2cc(F)c(-c3c(F)c(F)c(F)c(F)c3F)cc21 [Compound 148, (0.5)-1-(2-(2,2,7-trifluoro-3-oxo-6-(perfuorophenyl)-2,3-dihydro-4H-benzo[b][1,4]oxazin-4-yl)acetyl)piperazine-2-carboxylic acid] | < 100 nM | < 100 nM |
| CC(C)[C@H](C(=O)O)N1C(=O)C(F)(F)Oc2cc(F)c(-c3c(F)c(F)c(F)c(F)c3F)cc21 [Compound 151, (R)-3-methyl-2-(2,2,7-trifluoro-3-oxo-6-(perfluorophenyl)-2,3-dihydro-4H-benzo[b][1,4]oxazin-4-yl)butanoic acid] | < 100 nM | – |
| O=C(O)C1CN(C(=O)CN2C(=O)C(F)(F)Oc3cc(F)c(-c4cc(F)c(F)c(F)c4F)cc32)C1 [Compound 169, 1-(2-(2,2,7-trifluo-3-oxo-6-(2,3,4,5-tetrafluorophenyl)-2,3-dihydro-4H-benzo[b][1,4]oxazin-4-yl)acetyl)azetidine-3-carboxylic acid] | < 100 nM | – |
| C=C(C(=O)OC)N1C(=O)C(F)(F)Oc2cc(F)c(-c3c(F)c(F)c(F)c(F)c3F)c(F)c21 [Compound 178, methyl 2-(2,2,5,7-tetrafluoro-3-oxo-6-(perfluorophenyl)-2,3-dihydro-4H-benzo[b][1,4]oxazin-4-yl)acrylate] | < 100 nM | – |
| Cc1c(F)c(F)c(F)c(-c2cc3c(cc2F)OC(F)(F)C(=O)N3CC(=O)O)c1F [Compound 61, 2-(2,2,7-trifluoro-3-oxo-6-(2,3,4,6-tetrafluoro-5-methylphenyl)-2,3-dihydro-4H-benzo[b][1,4]oxazin-4-yl)acetic acid] | < 100 nM | < 100 nM |
| COC(=O)C(F)(F)CN1C(=O)C(F)(F)Oc2cc(F)c(-c3c(F)c(F)c(F)c(F)c3F)cc21 [Compound 48, methyl 2,2-difluoro-3-(2,2,7-trifluoro-3-oxo-6-(perfluorophenyl)-2,3-dihydro-4H-benzo[b][1,4]oxazin-4-yl)propanoate] | < 100 nM | < 100 nM |
| O=C(O)c1cccc(CN2C(=O)C(F)(F)Oc3cc(F)c(-c4c(F)c(F)c(F)c(F)c4F)cc32)c1F [Compound 54, 2-fluoro-3-((2,2,7-trifluoro-3-oxo-6-(perfluorophenyl)-2,3-dihydro-4H-benzo[b][1,4]oxazin-4-yl)methyl)benzoic acid] | < 100 nM | < 100 nM |
| COC(=O)[C@@H]1COCCN1C(=O)CN1C(=O)C(F)(F)Oc2cc(F)c(-c3c(F)c(F)c(F)c(F)c3F)cc21 [Compound 126, methyl (S)-4-(2-(2,2,7-trifluoro-3-oxo-6-(perfluorophenyl)-2,3-dihydro-4H-benzo[b][1,4]oxazin-4-yl)acetyl)morpholine-3-carboxylate] | < 100 nM | < 100 nM |
| O=C(O)C(O)CN1C(=O)C(F)(F)Oc2cc(F)c(-c3c(F)c(F)c(F)c(F)c3F)cc21 (centres unmarked) [Compound 149, 2-hydroxy-3-(2,2,7-trifluoro-3-oxo-6-(perfluorophenyl)-2,3-dihydro-4H-benzo[b][1,4]oxazin-4-yl)propanoic acid] | < 100 nM | – |
| CS(=O)(=O)NC(=O)CN1C(=O)C(F)(F)Oc2cc(F)c(-c3c(F)c(F)c(F)c(F)c3F)cc21 [Compound 13, N-(methylsulfonyl)-2-(2,2,7-trifluoro-3-oxo-6-(perfluorophenyl)-2,3-dihydro-4H-benzo[b][1,4]oxazin-4-yl)acetamide] | < 100 nM | < 100 nM |
| CC(C)(CCN1C(=O)C(F)(F)Oc2cc(F)c(-c3c(F)c(F)c(F)c(F)c3F)cc21)C(=O)O [Compound 141, 2,2-dimethyl-4-(2,2,7-trifluoro-3-oxo-6-(perfluorophenyl)-2,3-dihydro-4H-benzo[b][1,4]oxazin-4-yl)butanoic acid] | < 100 nM | < 100 nM |
| CCC[C@@H](C(=O)OC)N1C(=O)C(F)(F)Oc2cc(F)c(-c3c(F)c(F)c(F)c(F)c3F)cc21 [Compound 115, methyl (S)-2-(2,2,7-trifluoro-3-oxo-6-(perfluorophenyl)-2,3-dihydro-4H-benzo[b][1,4]oxazin-4-yl)pentanoate] | < 100 nM | < 100 nM |
| O=C(O)c1ccc(CCN2C(=O)C(F)(F)Oc3cc(F)c(-c4c(F)c(F)c(F)c(F)c4F)cc32)cc1 [Compound 129] | < 100 nM | < 100 nM |
| O=C(O)[C@H]1CS(=O)(=O)CCN1C(=O)CN1C(=O)C(F)(F)Oc2cc(F)c(-c3c(F)c(F)c(F)c(F)c3F)cc21 [Compound 121, (S)-4-(2-(2,2,7-trifluoro-3-oxo-6-(perfluorophenyl)-2,3-dihydro-4H-benzo[b][1,4]oxazin-4-yl)acetyl)thiomorpholine-3-carboxylic acid 1,1-dioxide] | < 100 nM | < 100 nM |
| CONC(=O)CN1C(=O)C(F)(F)Oc2cc(F)c(-c3c(F)c(F)c(F)c(F)c3F)cc21 [Compound 58, N-methoxy-2-(2,2,7-trifluoro-3-oxo-6-(perfluorophenyl)-2,3-dihydro-H-benzo[b][1,4]oxazin-4-yl)acetamide] | < 100 nM | < 100 nM |
| CN(CCC(=O)O)C(=O)CN1C(=O)C(F)(F)Oc2cc(F)c(-c3cc(F)c(F)c(F)c3F)cc21 [Compound 167, 3-(N-methyl-2-(2,2,7-trifluoro-3-oxo-6-(2,3,4,5-tetrafluorophenyl)-2,3-dihydro-4H-benzo[b][1,4]oxazin-4-yl)acetamido)propanoic acid] | < 100 nM | – |
| COC(=O)C1CN(C(=O)CN2C(=O)C(F)(F)Oc3cc(F)c(-c4c(F)c(F)c(F)c(F)c4F)cc32)C1 [Compound 86, methyl 1-(2-(2,2,7-trifluoro-3-oxo-6-(perfluorophenyl)-2,3-dihydro-4H-benzo[b][1,4]oxazin-4-yl)acetyl)azetidine-3-carboxylate] | < 100 nM | < 100 nM |
